From the supplement of paper PMC8426693
Some of the results follow.

Assays:
Test in all cases: NMR binding call after quantification (hit when 2 of 3 NMR criteria are met) (binary (1 = binding, 0 = not binding)); higher = binding
Conditions in all cases: RNA concentration 10 µM; fragment concentration 200 µM; 293 K
[1] = system: SARS-CoV-2 5'-UTR RNA
[2] = system: SARS-CoV-2 5_SL1 RNA
[3] = system: SARS-CoV-2 5_SL1234 RNA
[4] = system: SARS-CoV-2 5_SL2+3 RNA
[5] = system: SARS-CoV-2 5_SL4 RNA
[6] = system: SARS-CoV-2 5_SL5 RNA
[7] = system: SARS-CoV-2 5_SL5a RNA
[8] = system: SARS-CoV-2 5_SL5b+c RNA
[9] = system: SARS-CoV-2 5_SL5stem RNA
[10] = system: SARS-CoV-2 5_SL6 RNA

SMILES	NMR binding call [1]	NMR binding call [2]	NMR binding call [3]	NMR binding call [4]	NMR binding call [5]	NMR binding call [6]	NMR binding call [7]	NMR binding call [8]	NMR binding call [9]	NMR binding call [10]
CCc1nnc(NC(=O)CN(C)C)s1	0	0	0	0	0	0	0	0	0	0
CC1(S(=O)(=O)N2CCC=C(F)C2)CC1	0	0	0	0	0	0	0	0	0	0
CNCCC1CCCCC1	0	0	0	0	0	0	0	0	0	0
CCCc1cc(=O)oc2cc(OC(C)=O)ccc12	0	0	0	0	0	0	0	0	0	0
O=C1CN(C(=O)COc2ccccc2)CCN1	0	0	0	0	0	0	0	0	0	0
CC(N)CN1CCOCC1 (stereo unspecified)	0	0	0	0	0	0	0	0	0	0
O=C(NCC1CCCO1)N1CCOCC1 (stereo unspecified)	0	0	0	0	0	0	0	0	0	0
COC(=O)c1ccc(NC(=O)C2CCCC2)cc1	0	0	0	0	0	0	0	0	0	–
CNC(=O)CN1CCNCC1	0	0	0	0	0	0	0	0	0	0
Cc1cccc(C(=O)N2CCC(C(N)=O)CC2)c1	0	0	0	0	0	0	0	0	0	0
Nc1ccccc1OCc1ccccc1	0	0	0	0	0	0	0	0	0	–
CC(C)C(N)C(=O)N1CCOCC1 (stereo unspecified)	0	0	0	0	0	0	0	0	0	0
O=C(Nc1ccc(F)cc1F)Nn1cnnc1	0	0	0	0	0	0	0	0	0	0
Cc1ccc(-c2noc(CNC(C)C)n2)cc1	1	0	0	0	0	1	0	0	0	0
NC(=O)c1cc(N2CCCC2)ccn1	1	0	0	0	1	1	0	0	0	–
Cl.Cl.Cl.FC(F)n1ccnc1CN1CCNCC1	0	0	0	0	0	0	0	0	0	0
CC(N)c1ccc(NC(=O)C2CC2)cc1.Cl (stereo unspecified)	0	0	0	0	0	0	0	0	0	0
Cc1ccc(Nc2ncnc3[nH]ncc23)cc1	0	0	0	0	0	0	0	0	0	0
Cc1cccc(C(=O)NCC(=O)O)c1	0	0	0	0	0	0	0	0	0	0
CC(O)C(=O)NCc1ccccn1 (stereo unspecified)	0	0	0	0	0	0	0	0	0	–
Oc1ccccc1CN1CCc2ccccc2C1	0	0	0	0	0	0	0	0	0	0
CCOC(=O)CN1CCCCC1	0	0	0	0	0	0	0	0	0	0
CNC(=O)c1c(-c2ccc(F)cc2)noc1C	0	0	0	0	0	0	0	0	0	0
CNC1CCCN(c2ccccc2)C1=O (stereo unspecified)	0	0	0	0	0	0	0	0	0	0
CCOc1ncccc1C(N)=O	0	0	0	0	0	0	0	0	0	0
NC(=O)C1CCC(F)(F)CC1	0	0	0	0	0	0	0	0	0	0
O=S1(=O)CCN(Cc2ccco2)CC1	0	0	0	0	0	0	0	0	0	0

SMILES	NMR binding call [1]	NMR binding call [2]	NMR binding call [3]	NMR binding call [4]	NMR binding call [5]	NMR binding call [6]	NMR binding call [7]	NMR binding call [8]	NMR binding call [9]	NMR binding call [10]
COc1ccc2sc(N)nc2c1	1	0	0	0	0	1	0	0	0	–
Cn1cc(C(=O)O)c(-c2ccncc2)n1	0	0	0	0	0	0	0	0	0	–
CC(=O)Nc1cccc(C(=O)O)c1C	0	0	0	0	0	0	0	0	0	0
CNC(C)c1cnn(C)c1 (stereo unspecified)	0	0	0	0	0	0	0	0	0	0
CNCC(=O)Nc1cc(C)ccn1	1	0	0	0	0	0	0	0	0	–
CC(C)C(=O)Nc1cccc(C#N)c1	0	0	0	0	0	0	0	0	0	–
Cc1[nH]cnc1CN1CCc2ccccc2C1	0	0	0	0	0	0	0	0	0	0
CC1CCNC(C(N)=O)C1 (stereo unspecified)	0	0	0	0	0	0	0	0	0	0
CC(C)(C(N)=O)c1ccccc1	0	0	0	0	0	0	0	0	0	0
COc1ccc(NCc2ccc(F)cc2)cc1	0	0	0	0	0	0	0	0	0	0
NC(=O)c1ccccc1NC(=O)c1ccncc1	0	0	0	0	0	0	0	0	0	–
NCc1ccccc1OC(F)(F)F	0	0	0	0	0	0	0	0	0	0
CN(C)S(=O)(=O)c1cn[nH]c1	0	0	0	0	0	0	0	0	0	0
CN(CCO)S(=O)(=O)c1ccc(N)cc1	0	0	0	0	0	0	0	0	0	0
CC1CCN(Cc2c[nH]c3ccccc23)CC1	0	0	0	0	0	0	0	0	0	0
Cc1ncc(CN2CCNCC2)s1	0	0	0	0	0	0	0	0	0	0
CCOC(=O)c1cc(-c2ccc(F)cc2)no1	0	0	0	0	0	0	0	0	0	0
CCc1ccc(NC(=O)c2cnccn2)cc1	0	0	0	0	0	0	0	0	0	0
Cn1cc(CNC(=O)c2ccco2)cn1	0	0	0	0	0	0	0	0	0	0
Cn1ccc(C(=O)Nc2cccc(C(=O)O)c2)n1	0	0	0	0	0	0	0	0	0	0
Cc1noc(NC(=O)CC2CCCC2)n1	0	0	0	0	0	0	0	0	0	0
CC1CCN(C(=O)CCCc2ccccc2)CC1	0	0	0	0	0	0	0	0	0	0
CCCC(=O)Nc1nnn(CC)n1	0	0	0	0	0	0	0	0	0	0
CCOc1ccc(C(N)=O)cn1	0	0	0	0	0	0	0	0	0	0
CC(=O)N1CC2CCC1c1ccccc12 (stereo unspecified)	0	0	0	0	0	0	0	0	0	0
CCOC(=O)NCc1ccccc1	0	0	0	0	0	0	0	0	0	0
Cc1ccccc1OCC(=O)N(C)C	0	0	0	0	0	0	0	0	0	0

SMILES	NMR binding call [1]	NMR binding call [2]	NMR binding call [3]	NMR binding call [4]	NMR binding call [5]	NMR binding call [6]	NMR binding call [7]	NMR binding call [8]	NMR binding call [9]	NMR binding call [10]
O=C(NCCc1ccc(O)cc1)c1ccccn1	0	0	0	0	0	0	0	0	0	0
CNC(=O)CN(C)C1CCCCCC1	0	0	0	0	0	0	0	0	0	0
CS(=O)(=O)Nc1ccc(C(N)=O)cc1	0	0	0	0	0	0	0	0	0	0
c1cc(CN2CCNCC2)no1	0	0	0	0	0	0	0	0	0	0
CNC(=O)NCc1c(F)cccc1Cl	0	0	0	0	0	0	0	0	0	0
CNC1(CO)CCOCC1	0	0	0	0	0	0	0	0	0	0
NC(=O)c1ccc(NC(=O)c2ccccc2)cc1	0	0	0	0	0	0	0	0	0	0
CCC(=O)Nc1ccc(S(N)(=O)=O)cc1	0	0	0	0	0	0	0	0	0	0
CC(=O)Nc1cccc2nonc12	0	0	0	0	0	0	0	0	0	0
CCCC(=O)NCc1nc2ccccc2[nH]1	0	0	0	0	0	0	0	0	0	0
CCn1cc(NC(=O)C2CCC2)cn1	0	0	0	0	0	0	0	0	0	0
c1cc(NCC2CCCO2)ccn1 (stereo unspecified)	0	0	0	0	0	0	0	0	0	0
CC1CCCC1NCCO (stereo unspecified)	0	0	0	0	0	0	0	0	0	0
CC(=O)Nc1ccc(C#N)cc1	0	0	0	0	0	0	0	0	0	0
COc1cc(NC(C)=O)c(OC)cc1Cl	0	0	0	0	0	0	0	0	0	0
CNC(=O)c1cnc(C)s1	0	0	0	0	0	0	0	0	0	0
O=C(Nc1nncs1)c1ccccc1F	0	0	0	0	0	0	0	0	0	0
CC1CCN(C(=O)CC(F)(F)F)CC1	0	0	0	0	0	0	0	0	0	0
CNCc1ccc(C(F)(F)F)cc1	0	0	0	0	0	0	0	0	0	0
O=C(C1CC1)N1CCN(c2ccc(F)cc2)CC1	0	0	0	0	0	0	0	0	0	0
CC(=O)N1CC(C(=O)O)C1	0	0	0	0	0	0	0	0	0	0
CN1CCN(S(=O)(=O)N(C)C)CC1	0	0	0	0	0	0	0	0	0	0
Cc1nn(Cc2c(C)noc2C)c(=O)s1	0	0	0	0	0	0	0	0	0	0
Oc1ccc(CNC2CCCCC2)cc1	0	0	0	0	0	0	0	0	0	0
CC(=O)Nc1ccc(F)c(C(=O)O)c1	0	0	0	0	0	0	0	0	0	0
Cc1cc(C2CCCN2S(C)(=O)=O)no1 (stereo unspecified)	0	0	0	0	0	0	0	0	0	0
CCNC1CCN(c2ccncc2)CC1	1	1	0	0	0	0	0	1	0	0

In another format: entries from further up

| SMILES | NMR binding call [1] | NMR binding call [2] | NMR binding call [3] | NMR binding call [4] | NMR binding call [5] | NMR binding call [6] | NMR binding call [7] | NMR binding call [8] | NMR binding call [9] | NMR binding call [10] |
| --- | --- | --- | --- | --- | --- | --- | --- | --- | --- | --- |
| CNCc1ccc(C(F)(F)F)cc1 | 0 | 0 | 0 | 0 | 0 | 0 | 0 | 0 | 0 | 0 |
| O=C(C1CC1)N1CCN(c2ccc(F)cc2)CC1 | 0 | 0 | 0 | 0 | 0 | 0 | 0 | 0 | 0 | 0 |
| CC(=O)N1CC(C(=O)O)C1 | 0 | 0 | 0 | 0 | 0 | 0 | 0 | 0 | 0 | 0 |
| CN1CCN(S(=O)(=O)N(C)C)CC1 | 0 | 0 | 0 | 0 | 0 | 0 | 0 | 0 | 0 | 0 |
| Cc1nn(Cc2c(C)noc2C)c(=O)s1 | 0 | 0 | 0 | 0 | 0 | 0 | 0 | 0 | 0 | 0 |
| Oc1ccc(CNC2CCCCC2)cc1 | 0 | 0 | 0 | 0 | 0 | 0 | 0 | 0 | 0 | 0 |

Next records.

SMILES	NMR binding call [1]	NMR binding call [2]	NMR binding call [3]	NMR binding call [4]	NMR binding call [5]	NMR binding call [6]	NMR binding call [7]	NMR binding call [8]	NMR binding call [9]	NMR binding call [10]
CS(=O)(=O)NCCc1ccccc1	0	0	0	0	0	0	0	0	0	0
Cc1cncc(NCc2ccncc2)c1	0	0	0	0	0	0	0	0	0	0
CC(=O)N1CCCC2(CCCCCC2)C1	0	0	0	0	0	0	0	0	0	0
Cc1cc(N(C)C2CC(O)C2)nc(C)n1 (stereo unspecified)	0	0	0	0	0	0	0	0	0	0
CN1CCN(C(=O)c2ccc(F)c(F)c2)CC1	0	0	0	0	0	0	0	0	0	0
O=C(c1ccc2c(c1)OCO2)N1CCCCCC1	0	0	0	0	0	0	0	0	0	0
Cc1cccc(N2CCNC(C)C2)n1 (stereo unspecified)	0	0	0	0	0	0	0	0	0	0
CC(=O)Nc1cc(C(N)=O)cc(C(N)=O)c1	0	0	0	0	0	0	0	0	0	0
c1ccc2sc(N3CCOCC3)nc2c1	0	0	0	0	0	0	0	0	0	0
CS(=O)(=O)NC1CCNCC1	0	0	0	0	0	0	0	0	0	0
CCNC(=O)Nc1cc(C)on1	0	0	0	0	0	0	0	0	0	0
CCCc1nnc(NC(=O)c2ccccn2)s1	1	0	0	0	0	0	0	0	0	0
CCc1ccc(C(=O)NCc2cnn(C)c2)s1	0	0	0	0	0	0	0	0	0	0
COc1ccc(CC(=O)Nc2nncs2)cc1	0	0	0	0	0	0	0	0	0	0
Cc1cc(NC(=O)CCC2CCCCC2)no1	0	0	0	0	0	0	0	0	0	0
Cc1ccc(NC(=O)c2ccco2)cc1O	0	0	0	0	0	0	0	0	0	0
O=C(NCc1ccc(F)cc1)Nc1ccccc1	0	0	0	0	0	0	0	0	0	0
CC(C)C(=O)N1CCN(C(C)C)CC1	0	0	0	0	0	0	0	0	0	0
Cc1nc(-c2ccccc2)no1	0	0	0	0	0	0	0	0	0	0
CCS(=O)(=O)NCc1ccc2c(c1)OCO2	0	0	0	0	0	0	0	0	0	0
CC(C)n1cc(C(=O)O)nn1	0	0	0	0	0	0	0	0	0	0
O=S1(=O)CCCN1Cc1cccc(F)c1	0	0	0	0	0	0	0	0	0	0
Cn1ccc(NCc2ccccc2)n1	0	0	0	0	0	0	0	0	0	0
CCNCc1cn(C)nn1	0	0	0	0	0	0	0	0	0	0
